This is an account of results in PMC9800341, “THOC5 complexes with DDX5, DDX17, and CDK12 to regulate R loop structures and transcription elongation rate”.

Sequences of proteins named here, by UniProt entry; tags and fusion partners are left off.
UniProt Q92841: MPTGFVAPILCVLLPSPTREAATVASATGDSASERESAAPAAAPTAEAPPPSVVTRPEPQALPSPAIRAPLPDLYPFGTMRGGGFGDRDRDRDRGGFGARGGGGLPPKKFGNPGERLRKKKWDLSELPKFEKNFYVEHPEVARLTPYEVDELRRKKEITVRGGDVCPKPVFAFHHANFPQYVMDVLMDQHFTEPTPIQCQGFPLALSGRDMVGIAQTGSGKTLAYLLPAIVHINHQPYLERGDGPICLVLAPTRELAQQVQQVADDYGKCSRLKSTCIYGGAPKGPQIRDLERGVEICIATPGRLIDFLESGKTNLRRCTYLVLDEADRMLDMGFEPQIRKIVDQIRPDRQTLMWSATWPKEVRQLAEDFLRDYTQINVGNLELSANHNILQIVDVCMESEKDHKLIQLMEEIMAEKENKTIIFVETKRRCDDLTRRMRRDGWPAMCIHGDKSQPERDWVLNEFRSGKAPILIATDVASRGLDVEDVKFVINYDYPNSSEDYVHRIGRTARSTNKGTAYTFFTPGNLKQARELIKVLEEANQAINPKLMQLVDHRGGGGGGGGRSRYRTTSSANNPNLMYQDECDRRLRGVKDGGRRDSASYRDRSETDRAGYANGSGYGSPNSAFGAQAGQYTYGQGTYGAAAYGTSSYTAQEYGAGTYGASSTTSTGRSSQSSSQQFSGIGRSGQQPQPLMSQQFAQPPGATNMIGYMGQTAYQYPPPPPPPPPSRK
UniProt P17844: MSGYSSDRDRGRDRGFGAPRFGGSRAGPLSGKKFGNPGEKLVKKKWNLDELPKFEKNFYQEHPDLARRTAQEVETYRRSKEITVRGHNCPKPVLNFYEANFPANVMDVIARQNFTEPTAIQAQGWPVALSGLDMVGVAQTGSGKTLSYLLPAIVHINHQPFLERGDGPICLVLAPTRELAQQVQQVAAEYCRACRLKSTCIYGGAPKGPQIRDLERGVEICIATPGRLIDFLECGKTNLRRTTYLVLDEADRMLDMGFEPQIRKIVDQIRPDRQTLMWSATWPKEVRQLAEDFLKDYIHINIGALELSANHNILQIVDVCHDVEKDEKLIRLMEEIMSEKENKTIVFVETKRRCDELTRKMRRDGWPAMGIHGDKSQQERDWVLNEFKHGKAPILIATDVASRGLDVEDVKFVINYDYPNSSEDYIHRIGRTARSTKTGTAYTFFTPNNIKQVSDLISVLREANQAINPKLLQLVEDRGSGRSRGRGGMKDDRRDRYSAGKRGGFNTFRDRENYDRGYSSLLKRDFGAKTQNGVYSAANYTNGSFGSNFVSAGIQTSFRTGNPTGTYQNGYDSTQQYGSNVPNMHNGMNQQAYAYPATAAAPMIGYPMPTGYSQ

One assay deals with T1, recombinant GST-THOC6 (UniProt Q86W42).
T1 sequence: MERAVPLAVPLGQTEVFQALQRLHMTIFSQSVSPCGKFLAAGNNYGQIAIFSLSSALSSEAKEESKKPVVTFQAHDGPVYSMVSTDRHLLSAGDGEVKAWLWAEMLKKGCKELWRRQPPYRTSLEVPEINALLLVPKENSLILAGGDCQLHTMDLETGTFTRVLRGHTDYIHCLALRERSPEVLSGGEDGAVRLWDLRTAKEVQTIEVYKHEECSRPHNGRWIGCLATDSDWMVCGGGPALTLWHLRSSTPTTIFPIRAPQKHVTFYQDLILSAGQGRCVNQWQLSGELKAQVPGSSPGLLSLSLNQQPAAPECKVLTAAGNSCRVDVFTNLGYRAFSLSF
In words: pull-down; GST pull-down: recombinant GST-THOC6 WT or mutant incubated with purified THOC5 for 2 h rotation at 4°C; GST and THOC5-specific immunoblot; both purified. For orientation: A western blot detects proteins with antibodies after separation by electrophoresis.

Another assay concerns the target FLAG-tagged DDX17 (UniProt Q92841). Description: co-IP; FLAG-tagged DDX5 or DDX17 overexpressed in HEK293 cells, precipitated with FLAG M2 antibody from chromatin associated extracts; 150 mM NaCl, 0.5% NP-40, RNAse A; FLAG-, THOC5-, THOC6- and CDK12-specific immunoblot.
The next assay addresses FLAG-tagged DDX5 (UniProt P17844). The description is as above.
Assay [1] deals with T2, THOC5 (chromatin-associated, endogenous) (human (endogenous in HEK293)) (UniProt Q13769).
T2 sequence: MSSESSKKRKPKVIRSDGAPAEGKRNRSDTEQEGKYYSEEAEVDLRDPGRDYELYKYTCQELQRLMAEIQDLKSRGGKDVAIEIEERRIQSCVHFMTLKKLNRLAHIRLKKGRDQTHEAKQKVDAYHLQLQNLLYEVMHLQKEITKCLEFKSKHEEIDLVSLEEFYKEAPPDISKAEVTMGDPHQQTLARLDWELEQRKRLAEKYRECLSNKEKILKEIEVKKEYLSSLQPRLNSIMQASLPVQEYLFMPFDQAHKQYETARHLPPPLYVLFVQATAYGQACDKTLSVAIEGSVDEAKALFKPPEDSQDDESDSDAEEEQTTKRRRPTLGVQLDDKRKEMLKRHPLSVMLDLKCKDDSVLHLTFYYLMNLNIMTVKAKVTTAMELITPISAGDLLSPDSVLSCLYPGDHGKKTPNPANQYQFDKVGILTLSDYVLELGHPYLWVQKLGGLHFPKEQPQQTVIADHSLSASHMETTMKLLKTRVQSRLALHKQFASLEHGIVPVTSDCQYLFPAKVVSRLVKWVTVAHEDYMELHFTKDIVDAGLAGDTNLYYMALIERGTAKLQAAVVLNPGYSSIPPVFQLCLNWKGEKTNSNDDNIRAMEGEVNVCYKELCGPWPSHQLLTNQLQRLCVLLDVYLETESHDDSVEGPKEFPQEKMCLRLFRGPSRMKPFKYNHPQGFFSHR
Description: co-IP; endogenous THOC5 precipitated with mouse monoclonal anti-THOC5 from the chromatin-associated fraction of slow Pol II cells; 150 mM NaCl, 0.5% NP-40, RNAse A, 8 h at 4°C; immunoblot; THOC5-THOC6 also tested in CDK12-depleted cells.

Results are given in words; binding and its absence hold for the method and conditions named. For part of these data: In cells and extracts the contact can be indirect. Some binding calls cover weakened binding; strength is not graded here. For part of these data: Tags and fused reporters may be left off the sequences shown.

B1: purified FLAG-tagged THOC5 (protein, UniProt Q13769 1-683)
chain: T2 sequence
Turning to B1, the binding entry with recombinant GST-THOC6 is given as “binds”.

B2: THOC5 (chromatin-associated, endogenous) (protein, UniProt Q13769 1-683)
chain: T2 sequence
As for B2, the binding result with FLAG-tagged DDX17 and in the assay with FLAG-tagged DDX5 was “binds” each time.

B3: THOC6 (endogenous) (protein, UniProt Q86W42 1-341)
chain: T1 sequence
As to B3, the binding entry (in assay [1]; with FLAG-tagged DDX17; in the assay with FLAG-tagged DDX5) was “binds” each time.
